We go through 104 sequences from PubChem BioAssay AID1347423 (Functional Genomics Laboratory (NCATS/FGL), 2020).

The campaign covered roughly 52,000 sequences. About 210 (0.4%) were called active.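 The calls were made as follows: active = gene whose silencing raises cell survival under the drug, median off-target-corrected z-score across its silencing RNAs 2 or more; inactive = the rest.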 Some of the results follow.

This experiment in a line: Resistance to Poly (ADP-Ribose) Polymerase inhibitor: Gene Identification via Genome-wide siRNA Screen. The note with it: mouse BRCA2 R2336H ES cells, olaparib, CellTiter-Glo viability; stronger effect = higher value. Summed up:
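Genome-wide siRNA screen (3 siRNAs/gene, 20 nM) in mouse ES cells carrying hypomorphic BRCA2 R2336H; olaparib 500 nM added 48 h post-transfection, CellTiter-Glo viability 72 h later. Normalized to plate-median negative control; MAD z-scores, gene median, seed-adjusted.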
GGAUGUCUGACUCAGGUCUTT against Olfr829: the z-score is inactive: 0.731.

As to GGAUCUUCCCGUGAACAUCTT against Cndp1, the z-score is inactive: 2.08.

As for “CGAACAGAUAUUAUGUCAUTT against 1810009M01Rik”, the z-score is inactive: 1.34.

On to GCGAGUGUUUCUCUUGGGATT against Trpm5, for which the z-score was inactive: -0.223.

As for GGUAGAGCAAUUUCUAACCTT against BC034099, the z-score is inactive: -0.839.

For “CGAAUACUUGAUGUCCAUGTT against D230010M03Rik”, the z-score was inactive: 0.89.

With GGUCUCAGUUUCUCAGAAUTT against Siglecl1, the z-score is inactive: 2.46.

With “GCUAGCUAAUCCUUGUUUATT against D130060C09Rik”, the z-score is inactive: 1.4.

As for GUCAUGCCAGCAGAAAUGCTT against Sprr2j, the z-score is inactive: -1.55.

As to GGAAUUUUACACUUUACCUTT against Klhl11, the z-score is inactive: 1.08.

For the sequence GGCUCACUUUAUGUCGUGUTT against Apg5l, the z-score is inactive: -0.541.

Turning to GGAAAAACUGCUAGAUCUATT against As3mt, the z-score is inactive: 0.457.

Consider “GCUACGUGAAGCUAUAAACTT against 4930447C04Rik”, for which the z-score is inactive: 0.844.

For CCAUAGAACCGUCCUAAUUTT against Tbx3, the z-score is inactive: 0.5.

Turning to GCUUUCUGAAGUAGCAAAGTT against Nit2, the z-score was inactive: 1.67.

Turning to GCUGCACCAUGAAUGAGUCTT against Il4, the z-score was inactive: 1.15.

CCACUCACCCAGAUAGGUATT against AI413582: the z-score is inactive: 1.61.

For GCACCCGAACAUCAUUGCGTT against Map3k9, the z-score is inactive: 0.469.

As for GGAUCAGGCCCAACUUUAATT against Glra1, the z-score is inactive: -1.81.

Consider GGAUCUGAAGCUGAUUACATT against AI586120, for which the z-score was inactive: 0.211.

As for GCCGUUUCGUGUGGUAUUUTT against Tm4sf1, the z-score is inactive: -2.67.

Take “GGAAACAUGUCCACACUGCTT against 2700062C07Rik”: the z-score was inactive: -0.301.

As to GCAUGUGACUCCAUAUAAATT against Cldn15, the z-score is inactive: -0.529.

Turning to GGUGGAGUACUUGUGUGACTT against Suv39h2, the z-score is inactive: 1.87.

In the case of GGCUGUGUGAAUUUCAUGGTT against Reln, the z-score is inactive: -0.322.

GGCAAAAUGAAGAAGCUGATT against Hdac6: the z-score was inactive: 0.864.

Regarding GGUCAAGGCUCACUCCAAATT against Pte2b, the z-score was inactive: -0.391.

For CCAACCUAUAAGUUAAUGATT against Mrps22, the z-score was inactive: -0.953.

Take GGCAUCAAUGAGUUCGCAUTT against Dnb5: the z-score was inactive: 1.62.

In the case of GGCAUAUCCAGAUAAGACCTT against Tacc1, the z-score is inactive: 1.36.

Consider GCUAGAACUCGAUGUGGAUTT against Mapk8ip2, for which the z-score is inactive: -0.321.

As to GGACAAACAUGGAAGCGUGTT against Itga2b, the z-score is inactive: 0.435.

As to GCACAUACUACCUAGAAGGTT against Hoxb6, the z-score was inactive: -0.394.

Take GGAAGAAAACGCAACUAUATT against Atp1b3: the z-score is inactive: 1.31.

In the case of “CCUACUGUACCAGUAAAGUTT against 2810422M04Rik”, the z-score is inactive: -0.744.

Consider GGAUCAGUUGCUCCUAAACTT against Krtap6-2, for which the z-score was inactive: 0.391.

Take GGUAGUGUCUAACUUCUGGTT against Zfp496: the z-score was inactive: 0.703.

For CGCGAACUUACCAAAAUGUTT against Endog, the z-score is inactive: -0.4.

As for GCUGUCAGAAAUCUUCGACTT against E2f4, the z-score was inactive: 0.402.

In the case of CGUGGGACCUGGUAUGUAATT against Slc22a12, the z-score was inactive: -0.94.

On to GCUGAUGGUCAGAGGAAGATT against V1rd12, for which the z-score is inactive: 1.34.

In the case of GGGUCACGUGCUGUCUCAUTT against Gm963, the z-score was inactive: 1.73.

As for GGAUAUACAAGUUACAGAATT against Icam1, the z-score is inactive: 0.365.

On to GCAUCUUAACAAUAACUACTT against Fhl4, for which the z-score was inactive: -0.334.

For GGCAAAUGGUCUUUAUGCATT against Zfp606, the z-score is inactive: -0.699.

In the case of GCGAAUGAUAUGUAUCAGATT against Pik3r1, the z-score was inactive: -0.222.

Regarding “CGAGUUUUAUGAAUAAGCUTT against 2600013N14Rik”, the z-score is inactive: 0.707.

In the case of CCAAAAAAGUUAGUUGUGGTT against Phf6, the z-score is inactive: 0.464.

For GGAAUGAAAAACCUACAUGTT against Cxcl13, the z-score is inactive: 0.672.

As to GGAGCAGAUGGUUCAUGUCTT against Olfr547, the z-score was inactive: 2.48.

Turning to “GGAAUGUGGACAGUGGACATT against 4632423N09Rik”, the z-score is inactive: -2.06.

With GCCGAGAGGGAUGUGUAUATT against Psmb1, the z-score is inactive: -2.29.

Regarding GCAACCCUUUAAUGAAAAATT against AI591476, the z-score was inactive: -0.704.

With GGGUGUGACGAUUCUCACCTT against Olfr800, the z-score is inactive: 1.1.

Take “GGUGAUGCCUUAUUUUGAATT against 2310035K24Rik”: the z-score was inactive: -0.548.

With GCAUAAUUCUAAAGACGGGTT against Zfp143, the z-score is inactive: -0.383.

For the sequence CGAAAACGUGAAAUAUCUCTT against Gpd1l, the z-score was inactive: -0.379.

In the case of “GGAAUUGGUUCAUUUGGUUTT against 1300004G08Rik”, the z-score is inactive: 1.3.

For “GAUGGACCAGUACAGAAUUTT against 4632417K02”, the z-score is inactive: 0.843.

Turning to GGUGCUCUGCAUAUUCUGGTT against Olfr654, the z-score is inactive: 1.37.

For the sequence GCUAAAGCAGCCAAGUAUGTT against Eln, the z-score is inactive: 1.01.

With GGUGUCAAUAACAUAUCAGTT against Nav1, the z-score is inactive: -0.0933.

As to GGCUGGUUUAUUCUGGUAUTT against Als2cr2, the z-score is inactive: -0.945.

On to GGUUAAAUACAAGUCACAATT against AW210596, for which the z-score is inactive: -0.679.

Turning to GCACCUCCACCAAAAAAACTT against Cd52, the z-score is inactive: 0.0509.

CGAGAUGGAAUAUCGCACATT against Cyyr1: the z-score is inactive: 1.25.

For the sequence GGGUCAGAUUGCUAUCCUCTT against AW556797, the z-score is inactive: 1.05.

As to “GCAAGAACUGAAUCUAGUGTT against 2410002I01Rik”, the z-score was inactive: 0.0476.

Turning to GCUAGGCACAAGGUUUUUUTT against Rem1, the z-score is inactive: -0.354.

As to GGGCCUUUGGAUGUUGCUATT against Abcc10, the z-score is inactive: 1.24.

Consider GGGACAAGUGAUAAAUUUGTT against BC033609, for which the z-score was inactive: 0.279.

Turning to GGAGAUGUUAAUUGAAGUCTT against Ap3b1, the z-score is inactive: 1.12.

Regarding GCUGUCACACCUAGUGUCATT against Olfr1457, the z-score is inactive: -0.0756.

Regarding GGUCCUUCAGUGUAAAUCUTT against Cbr2, the z-score is inactive: 0.0774.

With GGAAAGCAAGUUCACAGUGTT against Olfr352, the z-score is inactive: -0.528.

Turning to GGGCUUUUUUCUUAAUGCCTT against Pramel3, the z-score is inactive: 0.51.

As for “GGCAGUAGUUCAGUUGAUATT against A230106N23”, the z-score is inactive: -0.409.

For the sequence GGCAGAUGGUAUCAGCUGUTT against Cd164l1, the z-score was inactive: 1.13.

GGAACAUUUACAACAUCCATT against Itgb2: the z-score was inactive: 1.91.

As for GGAUUUAACCUCUCCAACUTT against Olfr1030, the z-score was inactive: 0.318.

On to CCGAGCAGUAUGUGAACGUTT against Ela1, for which the z-score was inactive: -1.29.

As to GCUACUGUGUCGGUCACAUTT against Olfr514, the z-score was inactive: -1.5.

“GCUGUCAUCCCACUCAAACTT against 0710005M24Rik”: the z-score is inactive: 0.32.

GCUGGAGGUAUUCAACAUGTT against Gorasp1: the z-score was inactive: -0.566.

Turning to GCUUUGCUAAGCCUAAAAGTT against BC038156, the z-score was inactive: 0.773.

As for GGAUCUCCAAGUUAAAGAATT against Pigo, the z-score was inactive: 0.695.

For CCUCCCUAAUGGUCCAUUATT against Cyp2j13, the z-score was inactive: -1.11.

As for “GGAAAGACUUGCAUUUUCUTT against 1700010I14Rik”, the z-score is inactive: 0.141.

Turning to “GGGCAUUUUGAGAAUAUGATT against 4930441O14Rik”, the z-score was inactive: 0.927.

As to GCAUGGAGUCUGGUAUCUGTT against Olfr504, the z-score was inactive: 0.231.

For the sequence GGAGCCAAGAGUGAAGAACTT against Tbp, the z-score is inactive: -2.93.

On to CCAAAGUGGUUUUCAUCCUTT against Hps3, for which the z-score is inactive: -1.

Turning to “GGAAGGUGGCAAGGUAUCUTT against D030060O14Rik”, the z-score is inactive: -2.74.

In the case of GGCUGUGCUCCUUGUUAGUTT against Olfr1143, the z-score was inactive: -0.685.

Consider GGAAGGGUCACUACAGGCATT against Rnf31, for which the z-score was inactive: -0.393.

On to “GGCCAGCUACAAACUGCCUTT against 1810015A11Rik”, for which the z-score was inactive: -0.22.

With GGGCAGAACUGCAUGAGAATT against Acp1, the z-score was inactive: 0.568.

Take “CCCUAAGACGAAGGAAAUGTT against 1110004D19Rik”: the z-score is inactive: -2.09.

On to GGACCAUCCUACAUCGGUCTT against Fpgs, for which the z-score was inactive: 0.054.

Regarding GGGUGCUUGCCAUUAACCCTT against Galnt14, the z-score is inactive: 0.166.

Regarding CCUCUACAACCUAAUUUAUTT against Abcd1, the z-score is inactive: 0.486.

For the sequence GGAAGCACAUAGAAGCCAATT against Defb11, the z-score was inactive: -0.065.

On to CCAUGAGUGACCAAACAGGTT against Snx22, for which the z-score is inactive: 0.528.

With GCGCAUUGUGCAGGAUAAATT against Tnpo2, the z-score was inactive: -0.144.
